Measured values from US20220213196A1.
Results are given in words; binding and its absence hold for the method and conditions named. Some binding calls cover weakened binding; strength is not graded here.

Biological target: HLA-A*01:01_… (HLA-PEPTIDE target G10), recombinant soluble complex (human) (UniProt P04439)
Test: tetramer sorting and re-sorting of naive CD8+ T cells, single-cell TCR sequencing

binding: binds
B1: TCR ID #1 (clonotype specific for A*01:01_…) (TCR, V domains shown)
V domain 1: GQQVMQIPQYQHVQEGEDFTTYCNSSTTLSNIQWYKQRPGGHPVFLIQLVKSGEVKKQKRLTFQFGEAKKNSSLHITATQTTDVGTYFCAGPGNTGKLIFGQGTTLQVK
V domain 2: DGGITQSPKYLFRKEGQNVTLSCEQNLNHDAMYWYRQDPGQGLRLIYYSQIVNDFQKGDIAEGYSVSREKKESFPLTVTSAQKNPTAFYLCASSNAGDQPQHFGDGTRLSIL
